According to US11220503B2, “Phthalazine derivatives, preparation method, pharmaceutical composition and usage thereof” (Shanghai SIMR Biotech Co., Ltd., priority 2015, dated 2022):
Where “and” joins values, the source holds several entries; their conditions need not be identical. Identical values can stand only once. At least one read-out could not be matched to a standard name with certainty.

Amino acid sequences for entries named in this document (tags omitted). Residues count along the entry.
UniProt P18507, 40-475: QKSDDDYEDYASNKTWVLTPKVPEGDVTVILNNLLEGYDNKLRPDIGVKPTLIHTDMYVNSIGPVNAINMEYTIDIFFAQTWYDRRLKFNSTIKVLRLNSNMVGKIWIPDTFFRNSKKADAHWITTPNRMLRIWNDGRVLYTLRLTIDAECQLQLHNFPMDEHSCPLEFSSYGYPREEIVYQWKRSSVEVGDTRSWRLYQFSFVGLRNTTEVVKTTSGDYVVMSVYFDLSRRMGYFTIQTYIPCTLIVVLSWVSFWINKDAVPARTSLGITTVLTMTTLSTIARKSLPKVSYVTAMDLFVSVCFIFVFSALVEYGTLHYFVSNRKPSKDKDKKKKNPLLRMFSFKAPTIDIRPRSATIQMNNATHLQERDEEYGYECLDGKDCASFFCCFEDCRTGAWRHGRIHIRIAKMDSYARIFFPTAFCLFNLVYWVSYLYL
UniProt P31644, 32-462: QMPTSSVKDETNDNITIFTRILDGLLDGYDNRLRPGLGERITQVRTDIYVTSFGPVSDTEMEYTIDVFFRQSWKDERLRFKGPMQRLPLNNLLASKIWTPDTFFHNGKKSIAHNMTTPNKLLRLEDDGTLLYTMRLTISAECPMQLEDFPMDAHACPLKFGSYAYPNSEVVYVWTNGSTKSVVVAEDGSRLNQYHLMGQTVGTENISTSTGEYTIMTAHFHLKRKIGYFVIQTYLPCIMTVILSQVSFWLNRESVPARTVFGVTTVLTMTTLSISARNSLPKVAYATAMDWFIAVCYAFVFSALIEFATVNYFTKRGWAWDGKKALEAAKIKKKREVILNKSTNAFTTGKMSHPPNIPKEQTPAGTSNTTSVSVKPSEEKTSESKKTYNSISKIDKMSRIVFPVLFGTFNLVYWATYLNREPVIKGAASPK

Tests used:
α5β3γ2 receptor [1] = target: T1, α5β3γ2 receptor (Homo sapiens, UniProt P18507+P31644); experiment: Supplementary data for cell level screening: new electrophysiology method (I. Lecker et al); format: cell-based; settings: CsCl intracellular solution, GABA 0.1˜0.3 CM, other procedures as previous method
T1 construct: expressed in transfected cells; host or cells: HEK-293 (stably transfected)
Description: The inventors used electrophysiological methods to assay the inverse agonist efficacy of the substance to be tested. The detailed procedures are as follows: (1) Different subunits of GABAA receptors were expressed in human embryonic kidney cells 293 (HEK293). The cells were cultured in a culture medium and used as a cell model for screening potential analgesics. The α, β and γ subunits are necessary to form complete functional GABAA receptors. In this example, the inventor has established the following cell model: (a) α5 subunit (protein sequence is GenBank accession number: NP_001158509), β3 subunit (protein sequence is GenBank accession number: NP_068712) and γ2 subunit (protein sequence is GenBank accession number: NP_944494) were expressed in HEK-293 cell lines at the same time, which formed the complete functional GABAA receptors. […] The currents were recorded by an EPC-10 amplifier and the PatchMaster software (HEKA). […] Then the current induced by GABA can be detected. […] ECS was switched to compounds solution and the effects of the compounds were detected. […] (4) Currents were analyzed with the PatchMaster (HEKA) software. The GABA currents before (Ipre) and after (Ipost) compounds perfusion were recorded respectively. The efficacies of compounds were calculated by the following equation: inverse agonism efficacy=(Ipost-Ipre)*100/Ipre. […]

α5β3γ2 receptor [2] = target: T1, α5β3γ2 receptor; experiment: Cell level screening: whole cell patch clamp, inverse agonist efficacy; format: cell-based; settings: single replicates
Description: The inventors used electrophysiological methods to assay the inverse agonist efficacy of the substance to be tested. The detailed procedures are as follows: (1) Different subunits of GABAA receptors were expressed in human embryonic kidney cells 293 (HEK293). The cells were cultured in a culture medium and used as a cell model for screening potential analgesics. The α, β and γ subunits are necessary to form complete functional GABAA receptors. In this example, the inventor has established the following cell model: (a) α5 subunit (protein sequence is GenBank accession number: NP_001158509), β3 subunit (protein sequence is GenBank accession number: NP_068712) and γ2 subunit (protein sequence is GenBank accession number: NP_944494) were expressed in HEK-293 cell lines at the same time, which formed the complete functional GABAA receptors. (2) Cells were stably transfected HEK-293 cells expressing α5β3γ2 receptor, which were labeled by green fluorescent protein (GFP). Cells were grown in 10 cm dishes. The cells were passaged after reaching 80-90% confluence. During passaging, the culture medium was removed and discarded, 3 mL DMEM medium (Gibco™) was added to the dishes, the dishes were shaken slightly, and DMEM was removed and discarded. 3 mL Trypsin (Trypsin-EDTA 0.05%, Gibco™) was added and cells were digested at 37° C. for 3 minutes. Then 3 mL complete growth medium (DMEM+10% horse serum (Gibco™)) was added and the cells at the bottom of the culture dishes were dispersed. The cell suspension were transferred to a 15 mL centrifugal tube (Corning®) and then centrifuged at 200 g for 3 minutes. The supernatant was discarded, 4 mL complete growth medium was added, and the cells were resuspended by gently blowing. The cell suspension was diluted by 1:5 or 1:10 for subculturing. The cell suspension was diluted by 1:12 for electrophysiology experiment, which are added to the 24 well plate (Corning®) which has a glass slide pre-treated with poly-D-lysine. The cells were adhered to the slide before the experiment was conducted. The cells were maintained in culture for no more than 24 hours before use. (3) Compound concentration: for screening, all compounds were diluted to a final concentration of 100 nM. GABA was diluted at the concentration of 0.05-0.1 μM. The compounds were at the concentration of 1 nM, 10 nM, 50 nM, 100 nM and 1000 nM in dose-inverse agonism efficacy (%) experiment. The whole cell patch clamp technique was used in electrophysiology experiments. The extracellular solution (ECS) contained: 150 mM NaCl, 5 mM KCl, 2.5 mM CaCl2, 1 mM MgCl2, 10 mM HEPES and 10 mM glucose (pH 7.4); Patch electrodes were filled with an intracellular solution containing: 140 mM KCl, 5 mM EGTA, 10 mM HEPES (adjusted to pH 7.4 with KOH and to 320-330 mOsm with water). The currents were recorded by an EPC-10 amplifier and the PatchMaster software (HEKA). Patch electrodes with a resistance of 5-6 MΩ were pulled from borosilicate glass (Sutter). The diluted compounds were perfused by OCTAFLOWII system. GFP positive and independently growing cells were selected for recording. During recording, the membrane voltage was clamped at −60 mV. During experiment, the cells were firstly perfused with ECS for 20 seconds. When the baseline reached to a stable state, cells were then perfused with GABA solution. Then the current induced by GABA can be detected. After about 20-40 seconds, the current was stable. ECS was switched to compounds solution and the effects of the compounds were detected. At last, the perfusion solution was switched to ECS. The experiment was finished when the post-baseline returned to the pre-baseline before compounds perfusion. Only the data whose pre-baseline and post-baseline are at almost the same level were used for analysis. GABA was diluted at the concentration of 0.05-0.1 μM in ECS. Then, compounds were diluted at the desired concentration in GABA ECS. (4) Currents were analyzed with the PatchMaster (HEKA) software. […]

Row | SMILES | Inverse agonism efficacy(%) (α5β3γ2 receptor [1]) | Inverse agonism-Efficacy (α5β3γ2 receptor [2]; Con. 1 nM) | Inverse agonism-Efficacy (α5β3γ2 receptor [2]; Con. 10 nM) | Inverse agonism-Efficacy (α5β3γ2 receptor [2]; Con. 50 nM) | Inverse agonism-Efficacy (α5β3γ2 receptor [2]; Con. 100 nM) | Inverse agonism-Efficacy (α5β3γ2 receptor [2]; Con. 1000 nM)
1 | Cc1cc(-c2nnc3c4ccccc4c(OCc4cn(C)nn4)nn23)no1 [α5IA, reference compound] | −18.6% and −17.369% | −3.0% | −12.3% | −16% | −26.1% | −22.6%
2 | Cc1cc(-c2nnc3c4ccccc4c(OCc4ccc(C(=O)N(C)C)cn4)nn23)no1 [Compound 06, N,N-dimethyl-6-(((3-(5-methylisoxazol-3-yl)-[1,2,4]triazolo[3,4-a]phthalazin-6-yl)oxy)methyl)nicotinamide] | – | −12.5% | −15.4% and −16.0% | −17.1% and −24.0% | −26.0% and −22.5% | −28.0% and −35.7%
3 | CCNC(=O)c1ccc(COc2nn3c(-c4cc(C)on4)nnc3c3ccccc23)nc1 [Compound 07, N-ethyl-6-(((3-(5-methylisoxazol-3-yl)-[1,2,4]triazolo[3,4-a]phthalazin-6-yl)oxy)methyl)nicotinamide] | – | −10.3% and −5.8% and −8.4% and −11.8% | −32.6% and −34.4% and −26.3% | −24.2% and −30.3% and −42.5% | −32.6% and −33.3% and −32.3% | −42.9% and −40.3%
